Measured values as given in article PMC3576375.
No constants are given. Whether binding was seen depends on the method and setting. For some of these results: Binding calls can cover weak binding; strength is not graded here. For some of these results: Sequences can lack the tags named with a protein. For some of these results: In cells and extracts the contact can be indirect.

What was measured:
[1] = molecular target: T1, CT584-HA (Chlamydia trachomatis L2/434) (UniProt O84588); test: co-IP; reverse IP: lysates of Y. enterocolitica ΔHOPEMT co-expressing Myc-tagged substrate and HA-tagged chaperone, grown in non-secreting conditions and also in T3S-inducing conditions (without Ca2+); IP with mouse anti-HA (HA-7) on Protein G agarose; blot with anti-Myc
T1 sequence: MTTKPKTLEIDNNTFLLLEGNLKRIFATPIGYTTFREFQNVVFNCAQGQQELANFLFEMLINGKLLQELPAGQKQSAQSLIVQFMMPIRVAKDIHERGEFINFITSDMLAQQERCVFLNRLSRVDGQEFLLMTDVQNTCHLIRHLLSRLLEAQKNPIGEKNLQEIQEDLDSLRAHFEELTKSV

[2] = molecular target: CT619 (Chlamydia trachomatis L2/434); test: two-hybrid; bacterial adenylate cyclase two-hybrid (BACTH) in Cya-deficient E. coli BTH101; T18 and T25 fusions; blue colonies on LB with IPTG and X-gal, 24 h at 28°C, then β-galactosidase activity with ONPG; Fig. 1B and 1C
[3] = molecular target: CT082 (Chlamydia trachomatis L2/434); test: as above
[4] = molecular target: CT695 (Chlamydia trachomatis L2/434); test: as above
[5] = molecular target: CT711 (Chlamydia trachomatis L2/434); test: as above
[6] = molecular target: CT620 (Chlamydia trachomatis L2/434); test: as above
[7] = molecular target: CT621 (Chlamydia trachomatis L2/434); test: as above
[8] = molecular target: CT712 (Chlamydia trachomatis L2/434); test: as above
[9] = molecular target: GST-CT082_(1–200) (Chlamydia trachomatis L2/434); test: far-Western, overlay or dot blot; extracts of E. coli expressing GST fusions resolved by SDS-PAGE and blotted on nitrocellulose; membrane probed with 1.2 µg purified (6x)His-CT584 in 20 mM HEPES pH 7.5, 50 mM KCl, 10 mM MgCl2, 1 mM DTT, 0.1% Nonidet P-40, 16 h at 4°C; detection with anti-His; only the binder purified
[10] = molecular target: GST-CT082_(1–100) (Chlamydia trachomatis L2/434); test: as above
[11] = molecular target: GST-CT082_(101–560) (Chlamydia trachomatis L2/434); test: as above
[12] = molecular target: GST-CT082_(330–450) (Chlamydia trachomatis L2/434); test: as above
[13] = molecular target: GST-CT082 (Chlamydia trachomatis L2/434); test: as above
[14] = molecular target: GST-CT082_(201–560) (Chlamydia trachomatis L2/434); test: as above
[15] = molecular target: CT082-Myc (Chlamydia trachomatis L2/434); test: co-IP; lysates of Y. enterocolitica ΔHOPEMT co-expressing Myc-tagged substrate and HA-tagged chaperone, grown in non-secreting conditions (5 mM Ca2+); IP with mouse anti-Myc (9E10) on Protein G agarose, 2 h at 4°C; washes in 20 mM Tris-HCl pH 8, 150 mM NaCl, 1% Triton X-100; blot with anti-HA

CT695-Myc (Chlamydia trachomatis L2/434)
binding [1]: no binding

CT082-Myc (Chlamydia trachomatis L2/434)
binding [1]: binds

B1: CT584 (protein, UniProt O84588 1-183)
chain: MTTKPKTLEIDNNTFLLLEGNLKRIFATPIGYTTFREFQNVVFNCAQGQQELANFLFEMLINGKLLQELPAGQKQSAQSLIVQFMMPIRVAKDIHERGEFINFITSDMLAQQERCVFLNRLSRVDGQEFLLMTDVQNTCHLIRHLLSRLLEAQKNPIGEKNLQEIQEDLDSLRAHFEELTKSV
binding [2]: no binding
binding [3]: binds
binding [4]: no binding
binding [5]: no binding
binding [6]: no binding
binding [7]: no binding
binding [8]: no binding

B2: (6x)His-CT584 (protein, UniProt O84588 1-183)
chain: MTTKPKTLEIDNNTFLLLEGNLKRIFATPIGYTTFREFQNVVFNCAQGQQELANFLFEMLINGKLLQELPAGQKQSAQSLIVQFMMPIRVAKDIHERGEFINFITSDMLAQQERCVFLNRLSRVDGQEFLLMTDVQNTCHLIRHLLSRLLEAQKNPIGEKNLQEIQEDLDSLRAHFEELTKSV
binding [9]: no binding
binding [10]: no binding
binding [11]: binds
binding [12]: binds
binding [13]: binds
binding [14]: binds

B3: CT584-HA (protein, UniProt O84588 1-183)
chain: MTTKPKTLEIDNNTFLLLEGNLKRIFATPIGYTTFREFQNVVFNCAQGQQELANFLFEMLINGKLLQELPAGQKQSAQSLIVQFMMPIRVAKDIHERGEFINFITSDMLAQQERCVFLNRLSRVDGQEFLLMTDVQNTCHLIRHLLSRLLEAQKNPIGEKNLQEIQEDLDSLRAHFEELTKSV
binding [15]: binds
